Experimental data taken from patent US9447037B2, “4-(5-(4-chlorophenyl)-2-(2-cyclopropylacetyl)-1,4-dimethyl-1H-pyrrol-3-yl)benzenesulfonamide as alpha 7 nAChR modulator” (Lupin Limited, priority 2013, dated 2016).
Some entries share one result that the patent states for a list of compounds.

Chains of the proteins cited; added tags and fusions are not shown. Residues count along the entry.
UniProt P36544, 23-502: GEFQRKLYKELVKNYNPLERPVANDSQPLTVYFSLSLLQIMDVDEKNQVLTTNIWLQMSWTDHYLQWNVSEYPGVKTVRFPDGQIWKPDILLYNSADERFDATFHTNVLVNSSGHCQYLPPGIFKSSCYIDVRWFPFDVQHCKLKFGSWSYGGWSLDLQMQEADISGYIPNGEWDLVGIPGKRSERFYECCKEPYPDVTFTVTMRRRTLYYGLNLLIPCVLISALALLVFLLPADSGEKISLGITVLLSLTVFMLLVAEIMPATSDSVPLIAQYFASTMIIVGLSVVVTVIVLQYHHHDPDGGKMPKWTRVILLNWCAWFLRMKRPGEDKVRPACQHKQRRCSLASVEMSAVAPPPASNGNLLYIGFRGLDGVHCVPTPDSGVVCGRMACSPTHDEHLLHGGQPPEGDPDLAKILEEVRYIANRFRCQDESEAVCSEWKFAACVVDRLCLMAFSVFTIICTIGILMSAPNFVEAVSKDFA

Biological target: T1, α7nAChR (Homo sapiens, UniProt P36544)
T1 construct: human IMR-32 cells with native expression of α7nAChR; endogenous in cells; host or cells: IMR-32 (human neuroblastoma)
Assay: cell-based real-time kinetic FLIPR Ca2+ assay, potentiation of agonist (PNU-282987) response (fold PAM activity)
Conditions: 1 μM concentration; human IMR-32 cells; agonist PNU-282987 10 μM

Cc1c(-c2ccc(S(N)(=O)=O)cc2)c(C(=O)CC2CC2)n(C)c1-c1ccc(Cl)cc1 [Compound 1, 4-(5-(4-chlorophenyl)-2-(2-cyclopropylacetyl)-1,4-dimethyl-1H-pyrrol-3-yl)benzenesulfonamide]
fold PAM activity (fold increase in agonist response): more than 15 fold

CCC(=O)c1c(-c2ccc(S(N)(=O)=O)cc2)c(C)c(-c2ccc(Cl)cc2)n1C [Compound A, 4-(5-(4-chlorophenyl)-1,4-dimethyl-2-propionyl-1H-pyrrol-3-yl)benzenesulfonamide, reference compound]
fold PAM activity (fold increase in agonist response): more than 15 fold
